Among the data in publication PMC5760199, “Structural insights into the assembly and polyA signal recognition mechanism of the human CPSF complex” are binding values, retold here.

Amino acid sequences for entries named in this document (tags omitted). A change or cut given only in a name is not applied to a line headed by its entry. Chains listed by the source or under a name are the forms on record and can include a tag or linker.
UniProt Q9C0J8: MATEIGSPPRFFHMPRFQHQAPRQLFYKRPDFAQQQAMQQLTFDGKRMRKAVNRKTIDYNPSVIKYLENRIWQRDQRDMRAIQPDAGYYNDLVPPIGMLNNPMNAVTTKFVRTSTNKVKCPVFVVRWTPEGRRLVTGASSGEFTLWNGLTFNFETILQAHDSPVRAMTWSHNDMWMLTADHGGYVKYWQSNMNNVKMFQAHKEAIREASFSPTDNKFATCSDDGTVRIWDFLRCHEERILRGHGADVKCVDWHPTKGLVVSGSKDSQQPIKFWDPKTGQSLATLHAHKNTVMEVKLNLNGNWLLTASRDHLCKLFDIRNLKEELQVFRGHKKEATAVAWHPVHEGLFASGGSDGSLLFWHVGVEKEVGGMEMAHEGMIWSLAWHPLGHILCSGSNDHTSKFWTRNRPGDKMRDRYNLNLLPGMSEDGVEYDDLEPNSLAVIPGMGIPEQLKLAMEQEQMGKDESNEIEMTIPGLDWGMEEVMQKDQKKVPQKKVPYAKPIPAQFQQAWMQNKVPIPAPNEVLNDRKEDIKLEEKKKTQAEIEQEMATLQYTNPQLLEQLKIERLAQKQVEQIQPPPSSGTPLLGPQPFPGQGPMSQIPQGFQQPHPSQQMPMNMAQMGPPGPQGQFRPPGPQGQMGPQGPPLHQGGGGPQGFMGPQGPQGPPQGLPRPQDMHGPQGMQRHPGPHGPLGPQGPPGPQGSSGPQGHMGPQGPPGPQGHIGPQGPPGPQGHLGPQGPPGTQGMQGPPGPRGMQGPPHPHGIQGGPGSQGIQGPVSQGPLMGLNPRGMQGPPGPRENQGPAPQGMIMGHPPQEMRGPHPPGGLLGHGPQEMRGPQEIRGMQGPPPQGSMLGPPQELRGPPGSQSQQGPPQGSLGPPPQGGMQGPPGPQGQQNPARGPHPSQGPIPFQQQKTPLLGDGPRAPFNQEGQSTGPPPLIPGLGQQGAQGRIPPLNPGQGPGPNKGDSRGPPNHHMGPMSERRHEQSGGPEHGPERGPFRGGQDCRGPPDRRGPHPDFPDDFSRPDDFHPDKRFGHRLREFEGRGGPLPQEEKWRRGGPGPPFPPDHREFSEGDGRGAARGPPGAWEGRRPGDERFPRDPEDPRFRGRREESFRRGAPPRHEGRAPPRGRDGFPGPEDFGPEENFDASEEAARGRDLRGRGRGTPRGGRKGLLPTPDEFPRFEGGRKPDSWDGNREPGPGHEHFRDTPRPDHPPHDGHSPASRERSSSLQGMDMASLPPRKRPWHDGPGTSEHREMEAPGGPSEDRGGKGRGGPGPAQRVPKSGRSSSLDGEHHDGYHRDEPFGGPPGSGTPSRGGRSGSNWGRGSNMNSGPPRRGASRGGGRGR
GFP-tagged CPSF30^FL (O95639-3, form named): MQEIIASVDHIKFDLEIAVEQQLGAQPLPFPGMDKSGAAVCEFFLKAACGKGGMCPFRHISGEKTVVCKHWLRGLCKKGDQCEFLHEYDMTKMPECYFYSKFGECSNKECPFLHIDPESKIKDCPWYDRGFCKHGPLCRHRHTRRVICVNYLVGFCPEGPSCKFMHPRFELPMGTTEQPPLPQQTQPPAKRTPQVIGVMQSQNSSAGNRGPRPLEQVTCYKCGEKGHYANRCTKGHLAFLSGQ

These are yes or no findings as the source states them, for the method shown. For part of these data: Binding seen in cells or lysates may run through a third protein. Some entries that bind do so weakly or less than the wild type. For part of these data: Tags and fused reporters may be left off the sequences shown.

Experiment [1] deals with T1, CPSF160^FL-WDR33^M1-K410 heterodimer (human) (UniProt Q10570+Q9C0J8). Kind of experiment: co-purification of co-expressed subunits; subunits co-expressed in Sf9; Ni-NTA, then Streptactin, then SEC on Superdex-200 in 20 mM Tris-HCl pH 7.5, 150 mM NaCl, 1 mM DTT.
Experiment [2] has as its target T2, CPSF160^FL, subunit of the CPSF complexes purified by the tag on WDR33 (human) (UniProt Q10570).
T2 sequence: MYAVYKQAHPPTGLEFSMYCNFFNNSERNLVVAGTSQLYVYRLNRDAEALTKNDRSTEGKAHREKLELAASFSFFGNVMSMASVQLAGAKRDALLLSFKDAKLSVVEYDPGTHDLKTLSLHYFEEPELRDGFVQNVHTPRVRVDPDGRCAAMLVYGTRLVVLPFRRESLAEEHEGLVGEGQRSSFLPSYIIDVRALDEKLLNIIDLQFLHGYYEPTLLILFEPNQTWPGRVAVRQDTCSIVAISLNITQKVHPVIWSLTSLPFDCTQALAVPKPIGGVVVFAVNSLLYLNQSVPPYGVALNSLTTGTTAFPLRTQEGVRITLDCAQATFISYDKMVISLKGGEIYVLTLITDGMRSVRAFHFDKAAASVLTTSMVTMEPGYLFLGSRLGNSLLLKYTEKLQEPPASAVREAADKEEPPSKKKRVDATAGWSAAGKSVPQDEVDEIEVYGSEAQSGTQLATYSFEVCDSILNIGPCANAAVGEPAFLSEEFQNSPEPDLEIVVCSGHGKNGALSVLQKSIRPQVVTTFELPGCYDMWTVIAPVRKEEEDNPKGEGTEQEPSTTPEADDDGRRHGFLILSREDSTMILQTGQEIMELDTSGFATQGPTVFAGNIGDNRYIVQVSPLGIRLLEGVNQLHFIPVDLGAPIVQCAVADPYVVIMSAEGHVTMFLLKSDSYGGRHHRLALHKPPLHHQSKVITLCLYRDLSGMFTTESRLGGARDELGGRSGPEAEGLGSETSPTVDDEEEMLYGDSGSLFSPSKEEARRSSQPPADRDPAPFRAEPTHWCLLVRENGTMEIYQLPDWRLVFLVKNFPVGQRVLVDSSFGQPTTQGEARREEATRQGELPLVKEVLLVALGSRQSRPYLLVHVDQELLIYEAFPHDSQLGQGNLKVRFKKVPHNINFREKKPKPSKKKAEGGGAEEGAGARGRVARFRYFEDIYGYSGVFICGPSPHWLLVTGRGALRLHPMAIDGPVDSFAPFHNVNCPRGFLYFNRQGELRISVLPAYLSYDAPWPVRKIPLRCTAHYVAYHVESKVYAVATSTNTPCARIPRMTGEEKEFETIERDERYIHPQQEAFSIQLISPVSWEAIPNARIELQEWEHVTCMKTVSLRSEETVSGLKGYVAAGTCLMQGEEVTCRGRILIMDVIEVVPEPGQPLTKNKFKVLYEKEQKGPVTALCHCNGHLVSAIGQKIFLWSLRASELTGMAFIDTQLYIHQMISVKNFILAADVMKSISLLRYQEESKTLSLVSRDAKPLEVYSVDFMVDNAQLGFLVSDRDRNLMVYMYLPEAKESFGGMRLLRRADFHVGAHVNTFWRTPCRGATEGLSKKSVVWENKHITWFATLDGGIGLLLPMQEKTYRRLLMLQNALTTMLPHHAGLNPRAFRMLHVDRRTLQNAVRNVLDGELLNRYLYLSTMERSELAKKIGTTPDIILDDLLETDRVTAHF
Kind of experiment: cross-linking; purified CPSF160^FL-WDR33^M1-G474-CPSF30^FL-Fip1^FL complex at 2 mg/ml, 1 mM DSS-d0/d12, 20 mM HEPES pH 7.5, 150 mM NaCl, 0.25 mM TCEP, 37°C 30 min; cross-linked peptides identified by mass spectrometry (xQuest score higher than 30); both purified.

Experiment [3] deals with T1, CPSF160^FL-WDR33^M1-K410 heterodimer (human). Kind of experiment: pull-down; subunits co-expressed in Sf9; lysate on Ni-NTA, eluate on Streptactin beads, by the His6-(StrepII)2 tag on WDR33^M1-K410; 20 mM Tris-Cl pH 7.5, 200 mM NaCl, 10% glycerol, 0.05% Tween20; Coomassie and in-gel GFP fluorescence.

With “CPSF30^FL, co-expressed subunit (from UniProt O95639-3 1-243)”, the binding entry in experiment [1] and in experiment [2] was “binds” in each case.

With “GFP-tagged CPSF30^FL (from UniProt O95639-3 1-243)”, the binding entry in experiment [3] is reported as “binds”.
